Experiment [1] addresses GST-myosin VI C-terminal region that starts from the MyUb. The experiment can be described thus: pull-down.
Experiment [2] has as its target GST-myosin VI SAH domain. The experiment can be described thus: pull-down.
For experiment [3], the target named is GST-myosin VI short tail (835-1295). Briefly: pull-down.
In experiment [4] the target is GFP-myosin VI short full-length. The experiment can be described thus: co-IP.

Results are given in words; binding and its absence hold for the method and conditions named. Binding seen in cells or lysates may run through a third protein. For some of these results: Binding can be weak; no strength is given. Tags and fused reporters may be left off the sequences shown.

B1: 3xFlag-OFD1 full length (1-1012) (protein, UniProt O75665 1-1012)
chain: MMAQSNMFTVADVLSQDELRKKLYQTFKDRGILDTLKTQLRNQLIHELMHPVLSGELQPRSISVEGSSLLIGASNSLVADHLQRCGYEYSLSVFFPESGLAKEKVFTMQDLLQLIKINPTSSLYKSLVSGSDKENQKGFLMHFLKELAEYHQAKESCNMETQTSSTFNRDSLAEKLQLIDDQFADAYPQRIKFESLEIKLNEYKREIEEQLRAEMCQKLKFFKDTEIAKIKMEAKKKYEKELTMFQNDFEKACQAKSEALVLREKSTLERIHKHQEIETKEIYAQRQLLLKDMDLLRGREAELKQRVEAFELNQKLQEEKHKSITEALRRQEQNIKSFEETYDRKLKNELLKYQLELKDDYIIRTNRLIEDERKNKEKAVHLQEELIAINSKKEELNQSVNRVKELELELESVKAQSLAITKQNHMLNEKVKEMSDYSLLKEEKLELLAQNKLLKQQLEESRNENLRLLNRLAQPAPELAVFQKELRKAEKAIVVEHEEFESCRQALHKQLQDEIEHSAQLKAQILGYKASVKSLTTQVADLKLQLKQTQTALENEVYCNPKQSVIDRSVNGLINGNVVPCNGEISGDFLNNPFKQENVLARMVASRITNYPTAWVEGSSPDSDLEFVANTKARVKELQQEAERLEKAFRSYHRRVIKNSAKSPLAAKSPPSLHLLEAFKNITSSSPERHIFGEDRVVSEQPQVGTLEERNDVVEALTGSAASRLRGGTSSRRLSSTPLPKAKRSLESEMYLEGLGRSHIASPSPCPDRMPLPSPTESRHSLSIPPVSSPPEQKVGLYRRQTELQDKSEFSDVDKLAFKDNEEFESSFESAGNMPRQLEMGGLSPAGDMSHVDAAAAAVPLSYQHPSVDQKQIEEQKEEEKIREQQVKERRQREERRQSNLQEVLERERRELEKLYQERKMIEESLKIKIKKELEMENELEMSNQEIKDKSAHSENPLEKYMKIIQQEQDQESADKSSKKMVQEGSLVDTLQSSDKVESLTGFSHEELDDSW
As to B1, the binding entry in experiment [1] is on record as “binds”; in experiment [2], “no binding”; in experiment [3] it was “binds”; in experiment [4], “binds”.
